The exact form of at least one protein or probe is not confirmed. At least one verdict rests on a figure or table, not on a statement of the authors.
Target: EcoRV restriction endonuclease (UniProt P04390)
Assay: equilibrium binding (KA; assay not stated in material)
Settings: DEER: 175 uM DNA, 400 uM Cu(II), 200 uM EcoRV dimer, 50 mM NEM pH 7.4, 40% d8-glycerol in D2O (protein stock with 100 mM NaCl), flash frozen, recombinant protein

Sequences of proteins named here, by UniProt entry; tags and fusion partners are left off. A change or cut given only in a name is not applied to a line headed by its entry.
UniProt P04390: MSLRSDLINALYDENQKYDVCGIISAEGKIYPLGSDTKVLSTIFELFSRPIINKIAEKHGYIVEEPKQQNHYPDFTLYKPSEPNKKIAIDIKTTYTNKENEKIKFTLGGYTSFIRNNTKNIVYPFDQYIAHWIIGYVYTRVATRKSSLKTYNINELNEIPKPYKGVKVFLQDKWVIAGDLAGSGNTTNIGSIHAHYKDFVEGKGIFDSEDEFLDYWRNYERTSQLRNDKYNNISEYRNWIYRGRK

## GCAAAGATATCTTTCG (double strand) [EcoRV site 16-mer GCAAAgatatcTTTCG]
Lu(III), KA enhanced relative to metal-free KA,0, values not in material
  binding result: binds
No metal (reference KA,0, value truncated in material)
  binding result: binds

From PMC12147125
